PubChem BioAssay AID743121, NCATS | 2013
Purpose: 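Partners whose loss is lethal together with topoisomerase I blockade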 (primary screen). Cells: MDA-MB-231 cells, a human breast cancer line. Reagents: single siRNA against human genes, 20 nM siRNA (0.8 pmol per well). Time to read-out: 120 h (drug added 48 h after transfection, read 72 h later). Conditions: camptothecin 20 nM (about EC30) for 72 h; vehicle 0.1% DMSO in parallel plates. Measured: 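CellTiter-Glo ATP signal, scaled to control siRNA as percent viability; sensitisation given as log2 of untreated divided by camptothecin-treated viability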. Direction: log2 vehicle/camptothecin viability: higher = stronger sensitisation to camptothecin. Rule for the call: 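Each gene scored by redundant siRNA activity (RSA) over its individual siRNA ratios; a gene is called active at p < 0.001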.
Here is one part, drawn at random, of about 26,000 reagents. Of all reagents, 167 (0.63%) got an active call. 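Calls are per gene from RSA p-values that are not deposited; an individual active-marked siRNA can sensitise only weakly.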 Entries without a mark were called inactive. The numbers tell different reagents against one gene apart. Not all columns of the deposit are shown.

ENPEP #1 scored log2 vehicle/camptothecin viability -0.0417. With knock-down of ENPEP #2, the screen gave log2 vehicle/camptothecin viability 0.479. Silencing of ENPEP #3 came out at: log2 vehicle/camptothecin viability -0.433. ENPEP #4 gave log2 vehicle/camptothecin viability -0.0758. For DZIP3 #1, the entry reads log2 vehicle/camptothecin viability -0.265. After knock-down of DZIP3 #2, the screen gave log2 vehicle/camptothecin viability 0.0769.

With knock-down of DZIP3 #3 the results were log2 vehicle/camptothecin viability 0.224. With knock-down of GPR18 #1, the record shows log2 vehicle/camptothecin viability -0.361. GPR18 #2 showed log2 vehicle/camptothecin viability -0.194. After knock-down of GPR18 #3, the screen gave log2 vehicle/camptothecin viability -0.656. GPR18 #4 gave log2 vehicle/camptothecin viability -0.213. For PCLAF #1 the deposit lists log2 vehicle/camptothecin viability -0.166.

Knock-down of PCLAF #2 came out at: log2 vehicle/camptothecin viability -0.186. PCLAF #3 gave log2 vehicle/camptothecin viability 0.0292. Silencing of GPR25 #1 came out at: log2 vehicle/camptothecin viability -0.449. Against GPR25 #2, the entry reads log2 vehicle/camptothecin viability -0.317. GPR25 #3 gave log2 vehicle/camptothecin viability 0.464. Against GPR25 #4 the deposit lists log2 vehicle/camptothecin viability 0.0751.

RNF141 #1 showed log2 vehicle/camptothecin viability -0.219. RNF141 #2 scored log2 vehicle/camptothecin viability -0.471. RNF141 #3 gave log2 vehicle/camptothecin viability -0.456. After knock-down of RAB5C #1, the record shows log2 vehicle/camptothecin viability -0.231. Depletion of RAB5C #2 gave: log2 vehicle/camptothecin viability 0.078. For RAB5C #3 the deposit lists log2 vehicle/camptothecin viability -0.392.

RAB5C #4 scored log2 vehicle/camptothecin viability -0.458.

Not a retest: 2 of the entries above.
RAB5C #3 — log2 vehicle/camptothecin viability: -0.392
RAB5C #4 — log2 vehicle/camptothecin viability: -0.458
